Values from PubChem BioAssay AID1259314 (Drosophila RNAi Screening Center, 2017)
Shown is one part, drawn at random, of about 3,100 deposited reagents. 289 of all reagents (9.3%) were called active. 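Active includes both higher and lower ATP than plate average; check the z-score sign for direction.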 Names joined by + are all predicted targets of the reagent. Not stated in the record: the amount of reagent.

Test: 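Modifiers of manganese chloride toxicity in fly cells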 (primary screen)
Cells: Drosophila S2R+ cells
Reagent: long dsRNA against Drosophila genes
Time to read-out: 5 days (4 days knock-down, then 1 day metal exposure)
Treatment: manganese chloride added to 15 mM for 24 hours
Measurement: 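Cellular ATP measured by luciferase light, scaled to the plate mean, averaged across replicates and z-scored over plates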
Direction: mean ATP z-score: higher = more ATP than the plate average, more viable cells under manganese
Hit rule: 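Called active when the mean ATP z-score is above 1.5 or below -1.5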
Calls: active = strong ATP change, up or down; inactive = no strong ATP change

OtopLa [DRSC23226] | mean ATP z-score = 0.325; Call = inactive
OtopLa [DRSC29861] | mean ATP z-score = 0.12; Call = inactive
Elovl7 [DRSC15452] | mean ATP z-score = -0.501; Call = inactive
Elovl7 [DRSC21570] | mean ATP z-score = -1.43; Call = inactive
Elovl7 [DRSC25259] | mean ATP z-score = 0.326; Call = inactive
Culd [DRSC10262] | mean ATP z-score = 3.16; Call = active
Culd [DRSC39624] | mean ATP z-score = -0.471; Call = inactive
CG13877 + pyx [DRSC08347] | mean ATP z-score = 1.62; Call = active
Or59c [DRSC04633] | mean ATP z-score = 0.282; Call = inactive
Or59c [DRSC39767] | mean ATP z-score = 1.55; Call = active
Sec22 [DRSC29297] | mean ATP z-score = 0.949; Call = inactive
Sec22 [DRSC39605] | mean ATP z-score = 0.209; Call = inactive
CG33012 [DRSC06287] | mean ATP z-score = -1.21; Call = inactive
CG33012 [DRSC06288] | mean ATP z-score = -0.0381; Call = inactive
PIG-M + CG42380 + CG42379 + 1 more [DRSC03884] | mean ATP z-score = -0.155; Call = inactive
PIG-M + CG42380 + CG42379 + 1 more [DRSC04580] | mean ATP z-score = 0.342; Call = inactive
CG15408 [DRSC00423] | mean ATP z-score = -0.271; Call = inactive
CG15408 [DRSC39715] | mean ATP z-score = -0.583; Call = inactive

Next part; the last 4 above are carried over.
PIG-M + CG42380 + CG42379 + 1 more [DRSC03884] | mean ATP z-score = -0.155; Call = inactive
PIG-M + CG42380 + CG42379 + 1 more [DRSC04580] | mean ATP z-score = 0.342; Call = inactive
CG15408 [DRSC00423] | mean ATP z-score = -0.271; Call = inactive
CG15408 [DRSC39715] | mean ATP z-score = -0.583; Call = inactive
CG5880 [DRSC15906] | mean ATP z-score = 0.313; Call = inactive
CG5880 [DRSC39828] | mean ATP z-score = -0.211; Call = inactive
CG9254 [DRSC01969] | mean ATP z-score = 0.637; Call = inactive
SLC5A11 [DRSC03088] | mean ATP z-score = -0.961; Call = inactive
SLC5A11 [DRSC39771] | mean ATP z-score = -1.1; Call = inactive
CG45067 + CG45066 [DRSC08414] | mean ATP z-score = -0.989; Call = inactive
CG45067 + CG45066 [DRSC27186] | mean ATP z-score = 1.06; Call = inactive
Syx5 [DRSC03432] | mean ATP z-score = 1.57; Call = active
pHCl-2 [DRSC14306] | mean ATP z-score = 0.367; Call = inactive
PIG-Wb [DRSC08526] | mean ATP z-score = -0.218; Call = inactive
AdipoR [DRSC15767] | mean ATP z-score = -0.742; Call = inactive
AdipoR [DRSC39443] | mean ATP z-score = 0.54; Call = inactive
Nox [DRSC06596] | mean ATP z-score = 0.00974; Call = inactive
Nox [DRSC06857] | mean ATP z-score = 0.564; Call = inactive
Nox [DRSC27816] | mean ATP z-score = -0.191; Call = inactive
TrpA1 [DRSC10544] | mean ATP z-score = -1.01; Call = inactive
COX7A [DRSC16514] | mean ATP z-score = -1.77; Call = active
CG7888 [DRSC10926] | mean ATP z-score = 2.02; Call = active
CG7888 [DRSC39855] | mean ATP z-score = 0.653; Call = inactive
Or33a [DRSC03386] | mean ATP z-score = 0.0207; Call = inactive
Gr64a [DRSC21713] | mean ATP z-score = -0.739; Call = inactive
Gr64a [DRSC39738] | mean ATP z-score = 2.82; Call = active
Gr39a [DRSC01841] | mean ATP z-score = 0.61; Call = inactive
Gr39a [DRSC01842] | mean ATP z-score = -0.158; Call = inactive
Gr39a [DRSC27181] | mean ATP z-score = 1.18; Call = inactive
CG9483 [DRSC03226] | mean ATP z-score = 1.47; Call = inactive
CG9483 [DRSC29929] | mean ATP z-score = 1.99; Call = active
Inx6 [DRSC20579] | mean ATP z-score = 0.304; Call = inactive
Inx6 [DRSC26299] | mean ATP z-score = -0.635; Call = inactive
